According to paper PMC5665528:
Substitutions are numbered along the chain they refer to. Results are given in words; binding and its absence hold for the method and conditions named. Binding seen in cells or lysates may run through a third protein. Some results given as binding are weak or reduced against the parent protein; the word gives no strength.

Chains of the proteins cited; added tags and fusions are not shown.
UniProt Q5F3K4: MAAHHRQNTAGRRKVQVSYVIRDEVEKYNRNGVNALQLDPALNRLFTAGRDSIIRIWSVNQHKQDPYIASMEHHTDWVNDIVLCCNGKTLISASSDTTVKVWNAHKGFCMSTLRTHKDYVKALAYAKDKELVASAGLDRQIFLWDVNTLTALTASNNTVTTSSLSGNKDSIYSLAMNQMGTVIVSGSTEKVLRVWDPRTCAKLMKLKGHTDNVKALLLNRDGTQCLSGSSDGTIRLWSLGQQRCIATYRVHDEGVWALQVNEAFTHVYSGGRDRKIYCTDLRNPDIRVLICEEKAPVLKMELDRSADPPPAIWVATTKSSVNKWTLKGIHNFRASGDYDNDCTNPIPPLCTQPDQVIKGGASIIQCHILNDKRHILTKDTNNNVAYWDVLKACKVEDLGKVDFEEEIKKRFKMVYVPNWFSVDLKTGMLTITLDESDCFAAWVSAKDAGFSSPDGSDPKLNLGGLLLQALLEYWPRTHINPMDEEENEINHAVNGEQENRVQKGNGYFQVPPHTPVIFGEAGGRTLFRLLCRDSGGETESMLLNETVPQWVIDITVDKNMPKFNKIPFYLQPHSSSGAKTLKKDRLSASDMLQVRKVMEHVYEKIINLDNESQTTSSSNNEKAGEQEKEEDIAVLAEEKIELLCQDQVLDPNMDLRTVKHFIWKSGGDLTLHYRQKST

How the values were obtained:
[1] = target: T1, chUSP1^H594A (on chUSP1^FL) (chicken) (UniProt F1NPR3); test: pull-down; N-terminally hexa-His tagged chUSP1 (bait, with or without catalytic core mutations) and untagged chUAF1 co-expressed in Sf9 cells (co-infection, MOI 1, 72 h); lysate on a Ni-NTA column (50 mM Tris HCl pH 8.0, 10% glycerol, 500 mM NaCl, imidazole gradient); Coomassie gel and Western blot
T1 sequence: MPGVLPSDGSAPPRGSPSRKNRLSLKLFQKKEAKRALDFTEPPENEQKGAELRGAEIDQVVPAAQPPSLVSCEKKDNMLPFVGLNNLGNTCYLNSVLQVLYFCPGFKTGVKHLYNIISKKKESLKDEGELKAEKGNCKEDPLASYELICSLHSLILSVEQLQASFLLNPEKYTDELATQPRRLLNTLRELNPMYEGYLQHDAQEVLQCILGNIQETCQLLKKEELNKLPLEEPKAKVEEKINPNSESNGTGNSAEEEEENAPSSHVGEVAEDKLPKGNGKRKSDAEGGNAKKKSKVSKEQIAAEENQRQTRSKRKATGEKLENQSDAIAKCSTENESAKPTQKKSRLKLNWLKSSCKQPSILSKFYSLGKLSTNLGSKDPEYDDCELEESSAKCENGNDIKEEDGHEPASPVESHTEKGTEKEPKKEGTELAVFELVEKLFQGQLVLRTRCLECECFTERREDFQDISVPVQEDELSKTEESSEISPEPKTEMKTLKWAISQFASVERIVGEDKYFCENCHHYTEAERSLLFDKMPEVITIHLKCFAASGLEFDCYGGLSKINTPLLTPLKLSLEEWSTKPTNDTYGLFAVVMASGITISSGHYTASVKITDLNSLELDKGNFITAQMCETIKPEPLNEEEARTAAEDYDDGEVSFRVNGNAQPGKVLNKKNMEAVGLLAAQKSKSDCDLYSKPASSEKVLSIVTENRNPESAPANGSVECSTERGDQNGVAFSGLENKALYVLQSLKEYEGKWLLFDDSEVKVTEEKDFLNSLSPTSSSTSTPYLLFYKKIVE

[2] = target: T2, chUSP1^C91S (on chUSP1^FL) (chicken) (UniProt F1NPR3); test: as above
T2 sequence: T1 sequence with C91S, A594H

[3] = target: T3, chUSP1^C91A (on chUSP1^FL) (chicken) (UniProt F1NPR3); test: as above
T3 sequence: T1 sequence with C91A, A594H

[4] = target: chicken ubiquitin-specific protease 1, chUSP1^GG680,681AA double mutant (full-length control) (chicken) (UniProt F1NPR3); test: as above
[5] = target: T4, chUSP1^H603A (on chUSP1^FL) (chicken) (UniProt F1NPR3); test: as above
T4 sequence: T1 sequence with A594H, H603A

[6] = target: T5, chUSP1^CH91,594SA (on chUSP1^FL) (chicken) (UniProt F1NPR3); test: as above
T5 sequence: T1 sequence with C91S

[7] = target: T6, chUSP1^D758A (on chUSP1^FL) (chicken) (UniProt F1NPR3); test: as above
T6 sequence: T1 sequence with A594H, D758A

[8] = target: chicken ubiquitin-specific protease 1, chUSP1^GG680,681AA double mutant (full-length control) (chicken) (UniProt F1NPR3); test: pull-down; purified hexa-His tagged chUSP1^FL bound to Ni-NTA resin as bait; Sf9 cell lysate with untagged chUAF1 as prey, 1 hour at 4°C in lysis buffer (50 mM Tris HCl pH 8.0, 10% glycerol, 500 mM NaCl, 10 mM imidazole); eluted with 300 mM imidazole; Western blot; only the target purified

binding [1]: binds
binding [2]: binds
binding [3]: binds
binding [4]: binds
binding [5]: binds
binding [6]: binds
binding [7]: binds
binding [8]: binds
Substance: chicken USP associated factor 1, untagged (from UniProt Q5F3K4 1-678)
